PubChem BioAssay AID504744 | Drosophila RNAi Screening Center – 2011
Aim: 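Uncover factors, including feedback loops, that control dAkt activation in fly cells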 (primary screen). Cells: Drosophila Kc167 cells. Reagents: long dsRNA against Drosophila genes, 250 ng dsRNA per well of a 384-well plate. Duration: 3 days of knock-down, then overnight serum-free starvation before stimulation. Challenge: bovine insulin at 387 nM for 10 minutes after 12 h without serum. Read-out: 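Per-well phospho-dAkt level from an in-cell fluorescent antibody stain, divided by a DNA-dye signal; log2 residuals turned into z-scores that take cell number into account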. Hit rule: 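Under insulin, a gene counts as a hit if the average z-score of two replicates lies above 2.5 or below -2.5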.
The screen tested about 23,000 reagents; below is an unselected part of those that have a named target and a result. Over the whole deposit, 98 (0.43%) got an active call. 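Only hit calls are given; the phospho-dAkt signals, z-scores and hit direction were not deposited.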 Reagent sequences are not shown.

After knock-down of CG17196 (GeneID 43112) [DRSC15189], the record shows inactive.
Depletion of sev (GeneID 32039) [DRSC20372] resulted in: inactive.
CG3021 (GeneID 53546) [DRSC18165] scored inactive.
CG3021 (GeneID 53546) [DRSC18652] showed inactive.
Depletion of Mybbp1A (GeneID 31010) [DRSC18788] came out at: inactive.
Nepl19 (GeneID 43411) [DRSC14875] showed inactive.
mRpL27 (GeneID 318825) [DRSC22568] showed inactive.
For rost (GeneID 34222) [DRSC03603] the deposit lists inactive.
Knock-down of Nepl16 (GeneID 43014) [DRSC14650] resulted in: inactive.
Depletion of sowi (GeneID 40809) [DRSC12558] gave: inactive.
Knock-down of Yp1 (GeneID 31939) [DRSC18731] resulted in: inactive.
CG6688 (GeneID 42716) [DRSC16094] gave inactive.
With knock-down of CG1354 (GeneID 31914) [DRSC17902] the results were inactive.
For Dp1 (GeneID 37116) [DRSC07403], the values are inactive.
Silencing of CG6602 (GeneID 38691) [DRSC10673] gave: inactive.
After knock-down of CG4537 (GeneID 34306) [DRSC02756] the results were inactive.
Depletion of CG5104 (GeneID 40280) [DRSC11765] came out at: inactive.
CG15831 (retired record) (GeneID 3355006) [DRSC20816] gave inactive.
CG6678 (GeneID 42581) [DRSC16092] gave inactive.
With knock-down of Pmm2 (GeneID 39436) [DRSC09780], the record shows inactive.
Depletion of narya (GeneID 32932) [DRSC19439] came out at: inactive.
After knock-down of Rexo5 (GeneID 38740) [DRSC10981], the screen gave inactive.
sick (GeneID 35277) [DRSC02090] showed inactive.
For sick (GeneID 35277) [DRSC02301], the entry reads inactive.
With knock-down of sick (GeneID 35277) [DRSC02302], the screen gave inactive.
Depletion of sick (GeneID 35277) [DRSC02303] gave: inactive.
sick (GeneID 35277) [DRSC02306] scored inactive.
After knock-down of l(3)80Fj (GeneID 3355040) [DRSC20986], the screen gave inactive.
For l(3)80Fj (GeneID 3355040) [DRSC20989], the values are inactive.
Depletion of SrpRbeta (GeneID 47283) [DRSC21668] resulted in: inactive.
CG30275 (GeneID 246522) [DRSC04163] gave inactive.

Already shown: an excerpt of the list.
Nepl19 (GeneID 43411) [DRSC14875] | Outcome: inactive
mRpL27 (GeneID 318825) [DRSC22568] | Outcome: inactive
rost (GeneID 34222) [DRSC03603] | Outcome: inactive
Nepl16 (GeneID 43014) [DRSC14650] | Outcome: inactive
sowi (GeneID 40809) [DRSC12558] | Outcome: inactive
Yp1 (GeneID 31939) [DRSC18731] | Outcome: inactive
CG6688 (GeneID 42716) [DRSC16094] | Outcome: inactive
CG1354 (GeneID 31914) [DRSC17902] | Outcome: inactive

Further reagents:
For ZnT86D (GeneID 41342) [DRSC16091] the deposit lists inactive.
Depletion of mrj (GeneID 36797) [DRSC22592] resulted in: inactive.
Knock-down of fry (GeneID 39122) [DRSC08993] gave: inactive.
fry (GeneID 39122) [DRSC10172] gave inactive.
For fry (GeneID 39122) [DRSC10709], the entry reads inactive.
Knock-down of fry (GeneID 39122) [DRSC10712] resulted in: inactive.
Silencing of CG31709 (GeneID 261620) [DRSC01081] resulted in: inactive.
Against CG9747 (GeneID 43591) [DRSC16554], the values are inactive.
For MFS16 (GeneID 37427) [DRSC04051] the deposit lists inactive.
Against pasi1 (GeneID 42139) [DRSC16299], the entry reads inactive.
Against pasi1 (GeneID 42139) [DRSC22385], the values are inactive.
pAbp (GeneID 37070) [DRSC07659] gave inactive.
Syngr (GeneID 36533) [DRSC06003] showed inactive.
CG6424 (GeneID 37012) [DRSC05936] showed inactive.
After knock-down of Nubp2 (GeneID 40282) [DRSC11758], the record shows inactive.
After knock-down of mxc (GeneID 31869) [DRSC17819], the screen gave inactive.
Knock-down of tio (GeneID 44272) [DRSC03739] gave: inactive.
Silencing of mts (GeneID 45959) [DRSC03574] came out at: active.
Against CG13737 (GeneID 39531) [DRSC10064], the entry reads inactive.
Against ph-p (GeneID 31181) [DRSC18820], the values are inactive.
spt4 (GeneID 36387) [DRSC07696] showed inactive.
For Diedel (GeneID 43474) [DRSC14317], the entry reads inactive.
After knock-down of CG4653 (GeneID 32650) [DRSC19909], the record shows inactive.
Depletion of CG4653 (GeneID 32650) [DRSC22857] resulted in: inactive.
After knock-down of CG33454 (GeneID 2768850) [DRSC22914], the screen gave inactive.
CG9555 (GeneID 34223) [DRSC03264] gave inactive.
